From PMC8834445
These are yes or no findings as the source states them, for the method shown. A result given as binding can be weak or reduced; the word gives no strength. For some of these results: Binding seen in cells or lysates may run through a third protein. For some of these results: Where a sequence is shown, tags or fusion partners need not be part of it. Each block holds one substance with its values, some of them ahead of it.

Sequences of proteins named here, by UniProt entry; tags and fusion partners are left off. A change or cut given only in a name is not applied to a line headed by its entry.
UniProt O94874: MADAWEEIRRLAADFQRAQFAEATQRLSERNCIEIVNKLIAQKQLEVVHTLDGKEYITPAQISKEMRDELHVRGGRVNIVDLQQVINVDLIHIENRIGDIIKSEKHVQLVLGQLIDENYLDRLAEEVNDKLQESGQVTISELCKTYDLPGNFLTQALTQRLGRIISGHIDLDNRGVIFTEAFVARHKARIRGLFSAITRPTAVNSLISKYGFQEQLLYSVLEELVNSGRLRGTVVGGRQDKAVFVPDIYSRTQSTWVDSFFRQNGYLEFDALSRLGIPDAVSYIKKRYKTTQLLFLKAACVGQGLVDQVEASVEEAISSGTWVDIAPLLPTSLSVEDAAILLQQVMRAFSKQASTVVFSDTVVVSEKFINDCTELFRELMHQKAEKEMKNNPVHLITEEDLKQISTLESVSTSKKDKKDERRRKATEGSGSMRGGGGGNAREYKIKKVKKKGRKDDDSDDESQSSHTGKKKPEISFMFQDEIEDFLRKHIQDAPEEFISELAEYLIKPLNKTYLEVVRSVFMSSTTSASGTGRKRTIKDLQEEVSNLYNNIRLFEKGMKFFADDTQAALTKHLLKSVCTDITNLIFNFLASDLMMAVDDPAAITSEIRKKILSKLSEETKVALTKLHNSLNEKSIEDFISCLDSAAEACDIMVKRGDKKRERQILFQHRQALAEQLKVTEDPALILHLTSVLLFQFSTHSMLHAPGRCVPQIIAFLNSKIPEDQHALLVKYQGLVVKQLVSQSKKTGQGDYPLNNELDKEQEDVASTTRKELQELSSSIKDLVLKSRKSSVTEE
UniProt P23258: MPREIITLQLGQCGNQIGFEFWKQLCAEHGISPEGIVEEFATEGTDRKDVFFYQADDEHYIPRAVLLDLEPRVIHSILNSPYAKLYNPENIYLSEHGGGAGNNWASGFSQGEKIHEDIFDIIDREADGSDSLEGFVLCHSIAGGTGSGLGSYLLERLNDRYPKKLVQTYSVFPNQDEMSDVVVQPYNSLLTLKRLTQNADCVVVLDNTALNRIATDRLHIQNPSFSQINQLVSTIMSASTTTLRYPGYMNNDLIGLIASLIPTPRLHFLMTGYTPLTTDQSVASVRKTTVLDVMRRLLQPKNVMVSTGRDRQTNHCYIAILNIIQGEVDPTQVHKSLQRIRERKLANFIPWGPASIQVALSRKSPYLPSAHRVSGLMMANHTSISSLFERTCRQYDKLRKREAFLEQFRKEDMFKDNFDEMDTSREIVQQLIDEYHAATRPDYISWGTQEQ
UniProt P06748: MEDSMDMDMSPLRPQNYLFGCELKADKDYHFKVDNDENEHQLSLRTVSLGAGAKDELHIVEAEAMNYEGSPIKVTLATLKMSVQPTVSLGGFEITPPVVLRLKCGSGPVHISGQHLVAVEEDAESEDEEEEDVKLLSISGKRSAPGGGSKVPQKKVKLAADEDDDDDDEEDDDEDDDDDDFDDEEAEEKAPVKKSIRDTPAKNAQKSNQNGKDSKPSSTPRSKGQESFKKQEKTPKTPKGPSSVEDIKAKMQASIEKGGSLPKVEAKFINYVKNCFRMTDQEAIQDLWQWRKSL

How the values were obtained:
[1] = target: N-terminally GST-tagged full-length UFL1 (aa 1-794) (human) (UniProt O94874); experiment: pull-down; immobilised GST-tagged UFL1, C53 or γ-tubulin, or GST alone, incubated with whole-cell extracts (1% NP-40 in HEPES buffer); immunoblot; only the target purified
[2] = target: N-terminally GST-tagged full-length human CDK5RAP3 (C53) (human) (UniProt Q96JB5); experiment: as above
[3] = target: N-terminally EGFP-tagged human UFL1 (human) (UniProt O94874); experiment: co-IP; extracts of U2OS cells expressing EGFP-UFL1, C53-EGFP or EGFP alone; precipitated with Ab to GFP or, reciprocally, Ab to γ-tubulin; immunoblot
[4] = target: C-terminally EGFP-tagged human CDK5RAP3 (C53) (human) (UniProt Q96JB5); experiment: as above
[5] = target: N-terminally GST-tagged full-length human γ-tubulin-1 (human) (UniProt P23258); experiment: pull-down; beads with immobilised GST-γ-tubulin or GST alone incubated with purified FLAG-tagged UFL1, C53 or nucleophosmin at 0.5 μg/mL in TBST (10 mM Tris-HCl, pH 7.4, 150 mM NaCl, 0.05% Tween 20); immunoblot; both purified
[6] = target: γ-tubulin, endogenous human (human (endogenous in U2OS and T98G)) (UniProt P23258); experiment: co-IP; extracts of U2OS cells expressing EGFP-UFL1, C53-EGFP or EGFP alone; precipitated with Ab to GFP or, reciprocally, Ab to γ-tubulin; immunoblot

Substance: γ-tubulin, endogenous human (from UniProt P23258)
binding [1]: binds | binding [2]: binds | binding [3]: binds | binding [4]: binds

binding [5]: binds weakly
Substance: C-terminally FLAG-tagged human UFL1, purified (from UniProt O94874-1 1-794)

binding [5]: no binding (tested: 0.5 μg/mL)
Substance: Purified C-terminally FLAG-tagged nucleophosmin (negative control) (from UniProt P06748 1-294)

Substance: N-terminally EGFP-tagged human UFL1 (from UniProt O94874-1 1-794)
binding [6]: binds
